The values that follow come from PMC10570296.

The chains behind the UniProt entries cited, without tags or fusion partners.
UniProt O75151: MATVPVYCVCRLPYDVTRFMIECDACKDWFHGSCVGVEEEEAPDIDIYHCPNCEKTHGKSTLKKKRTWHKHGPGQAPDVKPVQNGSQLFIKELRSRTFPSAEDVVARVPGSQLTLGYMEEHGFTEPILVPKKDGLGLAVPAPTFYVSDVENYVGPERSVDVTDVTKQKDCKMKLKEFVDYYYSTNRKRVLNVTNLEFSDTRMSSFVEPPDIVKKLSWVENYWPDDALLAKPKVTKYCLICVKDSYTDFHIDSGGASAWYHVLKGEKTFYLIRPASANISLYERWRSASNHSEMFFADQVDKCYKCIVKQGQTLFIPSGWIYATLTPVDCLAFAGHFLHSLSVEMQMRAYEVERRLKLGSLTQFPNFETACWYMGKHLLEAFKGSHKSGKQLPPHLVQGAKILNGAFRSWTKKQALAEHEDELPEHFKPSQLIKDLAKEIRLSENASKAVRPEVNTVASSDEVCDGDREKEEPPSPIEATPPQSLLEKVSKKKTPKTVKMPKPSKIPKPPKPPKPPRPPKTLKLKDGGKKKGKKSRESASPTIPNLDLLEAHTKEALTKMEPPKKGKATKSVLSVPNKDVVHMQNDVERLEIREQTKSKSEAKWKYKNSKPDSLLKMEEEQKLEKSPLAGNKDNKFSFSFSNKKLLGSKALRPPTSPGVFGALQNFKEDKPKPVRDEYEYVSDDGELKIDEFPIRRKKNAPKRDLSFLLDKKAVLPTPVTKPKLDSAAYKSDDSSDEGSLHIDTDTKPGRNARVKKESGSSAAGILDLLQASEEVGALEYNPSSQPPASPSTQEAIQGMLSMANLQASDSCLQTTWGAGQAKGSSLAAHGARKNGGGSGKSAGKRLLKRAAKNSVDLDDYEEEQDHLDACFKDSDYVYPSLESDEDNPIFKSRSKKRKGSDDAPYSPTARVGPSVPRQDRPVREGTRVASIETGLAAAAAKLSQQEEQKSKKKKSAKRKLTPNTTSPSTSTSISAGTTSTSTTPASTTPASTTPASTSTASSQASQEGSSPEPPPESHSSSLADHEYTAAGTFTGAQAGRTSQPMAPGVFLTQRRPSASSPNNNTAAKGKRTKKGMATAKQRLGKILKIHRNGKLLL

The test addresses Flag/SBP-PHF2 (human) (UniProt O75151). In words: affinity purification with mass spectrometry; HepG2 cells transfected with Flag/SBP-PHF2; proteins purified with Flag or streptavidin affinity beads, in-gel digestion, LC-MS.

These are yes or no findings as the source states them, for the method shown. In cells and extracts the contact can be indirect. Here binding means that the protein was enriched with, or labelled near, the bait; the list need not be complete.

B1: endogenous SREBP1c (sterol regulatory element-binding protein 1c) (protein, UniProt P36956-3 1-1047)
chain: MDCTFEDMLQLINNQDSDFPGLFDPPYAGSGAGGTDPASPDTSSPGSLSPPPATLSSSLEAFLSGPQAAPSPLSPPQPAPTPLKMYPSMPAFSPGPGIKEESVPLSILQTPTPQPLPGALLPQSFPAPAPPQFSSTPVLGYPSPPGGFSTGSPPGNTQQPLPGLPLASPPGVPPVSLHTQVQSVVPQQLLTVTAAPTAAPVTTTVTSQIQQVPVLLQPHFIKADSLLLTAMKTDGATVKAAGLSPLVSGTTVQTGPLPTLVSGGTILATVPLVVDAEKLPINRLAAGSKAPASAQSRGEKRTAHNAIEKRYRSSINDKIIELKDLVVGTEAKLNKSAVLRKAIDYIRFLQHSNQKLKQENLSLRTAVHKSKSLKDLVSACGSGGNTDVLMEGVKTEVEDTLTPPPSDAGSPFQSSPLSLGSRGSGSGGSGSDSEPDSPVFEDSKAKPEQRPSLHSRGMLDRSRLALCTLVFLCLSCNPLASLLGARGLPSPSDTTSVYHSPGRNVLGTESRDGPGWAQWLLPPVVWLLNGLLVLVSLVLLFVYGEPVTRPHSGPAVYFWRHRKQADLDLARGDFAQAAQQLWLALRALGRPLPTSHLDLACSLLWNLIRHLLQRLWVGRWLAGRAGGLQQDCALRVDASASARDAALVYHKLHQLHTMGKHTGGHLTATNLALSALNLAECAGDAVSVATLAEIYVAAALRVKTSLPRALHFLTRFFLSSARQACLAQSGSVPPAMQWLCHPVGHRFFVDGDWSVLSTPWESLYSLAGNPVDPLAQVTQLFREHLLERALNCVTQPNPSPGSADGDKEFSDALGYLQLLNSCSDAAGAPAYSFSISSSMATTTGVDPVAKWWASLTAVVIHWLRRDEEAAERLCPLVEHLPRVLQESERPLPRAALHSFKAARALLGCAKAESGPASLTICEKASGYLQDSLATTPASSSIDKAVQLFLCDLLLVVRTSLWRQQQPPAPAPAAQGTSSRPQASALELRGFQRDLSSLRRLAQSFRPAMRRLMDVLTSESAWALPQHLGKGFPSPSGHKVPGWHGRMD
On to B1, for which the binding entry is listed as “binds”.
